Measurements reported in the supplement of paper PMC12823440, “Inhibitors supercharge kinase turnover through native proteolytic circuits” (Nature, 2025).
The other results are listed elsewhere or left out. The calls rarely recur for the same compound in another form.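 Kinases, fused to nanoluciferase, were expressed in K562 cells; luminescence was measured every 4 h from 2 to 18 h as percent of control (DMSO = 100%, positive control = 0%). A time point is decreased if signal falls significantly (2 sigma). Hits were called by the authors by a rule that is not shown; the count of time points alone does not decide it.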

The chains behind the UniProt entries cited, without tags or fusion partners. Where a name states a change or a piece, a line headed by the entry shows the natural chain unless it says otherwise.
UniProt O75460: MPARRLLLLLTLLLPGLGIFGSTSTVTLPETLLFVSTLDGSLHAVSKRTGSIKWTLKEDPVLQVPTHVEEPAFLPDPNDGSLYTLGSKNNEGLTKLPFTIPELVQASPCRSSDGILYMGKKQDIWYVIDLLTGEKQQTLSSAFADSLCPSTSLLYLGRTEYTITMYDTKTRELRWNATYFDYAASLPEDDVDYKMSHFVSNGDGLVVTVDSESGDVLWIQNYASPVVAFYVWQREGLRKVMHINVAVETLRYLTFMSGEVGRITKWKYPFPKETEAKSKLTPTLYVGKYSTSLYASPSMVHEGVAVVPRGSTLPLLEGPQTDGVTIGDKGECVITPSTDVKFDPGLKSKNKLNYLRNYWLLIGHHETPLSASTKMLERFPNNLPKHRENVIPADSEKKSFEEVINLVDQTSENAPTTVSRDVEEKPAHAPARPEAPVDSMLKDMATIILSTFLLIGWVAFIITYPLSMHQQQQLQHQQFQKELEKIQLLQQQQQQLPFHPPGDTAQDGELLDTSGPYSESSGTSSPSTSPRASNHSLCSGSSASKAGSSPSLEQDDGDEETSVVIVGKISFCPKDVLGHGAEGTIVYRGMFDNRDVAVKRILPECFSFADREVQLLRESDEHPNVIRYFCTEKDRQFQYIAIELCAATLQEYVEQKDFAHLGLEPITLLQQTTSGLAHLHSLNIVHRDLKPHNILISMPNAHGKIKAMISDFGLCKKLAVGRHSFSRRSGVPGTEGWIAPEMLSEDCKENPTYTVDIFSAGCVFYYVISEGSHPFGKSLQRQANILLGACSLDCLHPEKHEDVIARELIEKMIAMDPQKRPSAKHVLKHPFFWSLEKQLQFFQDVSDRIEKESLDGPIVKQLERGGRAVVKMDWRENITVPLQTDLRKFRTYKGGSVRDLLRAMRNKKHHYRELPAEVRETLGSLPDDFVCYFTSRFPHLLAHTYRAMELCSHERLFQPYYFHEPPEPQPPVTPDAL
UniProt P11362, whole entry, looked up: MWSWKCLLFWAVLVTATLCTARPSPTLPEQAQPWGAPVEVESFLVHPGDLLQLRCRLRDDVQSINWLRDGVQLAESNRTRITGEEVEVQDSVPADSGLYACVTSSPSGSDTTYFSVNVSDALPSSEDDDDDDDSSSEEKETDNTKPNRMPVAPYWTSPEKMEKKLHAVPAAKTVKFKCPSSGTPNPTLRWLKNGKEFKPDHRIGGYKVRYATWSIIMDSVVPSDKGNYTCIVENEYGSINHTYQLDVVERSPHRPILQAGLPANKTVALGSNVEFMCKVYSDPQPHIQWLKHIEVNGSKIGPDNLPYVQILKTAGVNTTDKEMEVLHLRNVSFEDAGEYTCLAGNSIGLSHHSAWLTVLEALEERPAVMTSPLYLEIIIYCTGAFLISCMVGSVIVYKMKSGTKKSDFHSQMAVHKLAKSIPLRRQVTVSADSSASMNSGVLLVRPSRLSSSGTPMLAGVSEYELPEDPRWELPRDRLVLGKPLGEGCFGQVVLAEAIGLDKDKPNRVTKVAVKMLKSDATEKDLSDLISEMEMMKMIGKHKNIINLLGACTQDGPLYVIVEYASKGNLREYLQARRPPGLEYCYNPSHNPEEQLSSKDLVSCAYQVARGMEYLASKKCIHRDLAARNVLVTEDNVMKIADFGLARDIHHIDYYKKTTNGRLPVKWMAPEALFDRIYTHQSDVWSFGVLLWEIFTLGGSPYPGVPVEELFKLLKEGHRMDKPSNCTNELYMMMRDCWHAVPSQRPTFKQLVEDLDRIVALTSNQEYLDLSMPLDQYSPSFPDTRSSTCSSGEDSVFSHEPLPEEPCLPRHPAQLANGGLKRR
UniProt P22607, whole entry, looked up: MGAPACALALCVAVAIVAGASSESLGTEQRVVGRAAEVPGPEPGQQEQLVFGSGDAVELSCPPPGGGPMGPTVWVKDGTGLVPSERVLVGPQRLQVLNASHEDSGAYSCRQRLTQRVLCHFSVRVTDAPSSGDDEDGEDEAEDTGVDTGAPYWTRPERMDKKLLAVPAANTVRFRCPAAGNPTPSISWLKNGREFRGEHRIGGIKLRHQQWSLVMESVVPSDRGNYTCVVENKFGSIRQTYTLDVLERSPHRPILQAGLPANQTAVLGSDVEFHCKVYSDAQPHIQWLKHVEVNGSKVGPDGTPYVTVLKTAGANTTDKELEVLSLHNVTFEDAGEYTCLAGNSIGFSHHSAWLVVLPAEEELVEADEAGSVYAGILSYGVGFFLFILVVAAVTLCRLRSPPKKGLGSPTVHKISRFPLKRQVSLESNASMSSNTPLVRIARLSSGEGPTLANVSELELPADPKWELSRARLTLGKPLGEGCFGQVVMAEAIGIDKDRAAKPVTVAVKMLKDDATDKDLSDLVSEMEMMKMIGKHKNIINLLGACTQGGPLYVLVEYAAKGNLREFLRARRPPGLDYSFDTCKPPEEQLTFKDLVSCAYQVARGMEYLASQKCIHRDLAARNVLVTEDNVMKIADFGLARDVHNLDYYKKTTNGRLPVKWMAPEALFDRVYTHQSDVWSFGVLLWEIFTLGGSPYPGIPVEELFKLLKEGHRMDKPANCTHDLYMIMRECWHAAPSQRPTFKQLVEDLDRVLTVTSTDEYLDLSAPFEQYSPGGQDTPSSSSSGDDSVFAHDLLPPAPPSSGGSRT
UniProt P53671: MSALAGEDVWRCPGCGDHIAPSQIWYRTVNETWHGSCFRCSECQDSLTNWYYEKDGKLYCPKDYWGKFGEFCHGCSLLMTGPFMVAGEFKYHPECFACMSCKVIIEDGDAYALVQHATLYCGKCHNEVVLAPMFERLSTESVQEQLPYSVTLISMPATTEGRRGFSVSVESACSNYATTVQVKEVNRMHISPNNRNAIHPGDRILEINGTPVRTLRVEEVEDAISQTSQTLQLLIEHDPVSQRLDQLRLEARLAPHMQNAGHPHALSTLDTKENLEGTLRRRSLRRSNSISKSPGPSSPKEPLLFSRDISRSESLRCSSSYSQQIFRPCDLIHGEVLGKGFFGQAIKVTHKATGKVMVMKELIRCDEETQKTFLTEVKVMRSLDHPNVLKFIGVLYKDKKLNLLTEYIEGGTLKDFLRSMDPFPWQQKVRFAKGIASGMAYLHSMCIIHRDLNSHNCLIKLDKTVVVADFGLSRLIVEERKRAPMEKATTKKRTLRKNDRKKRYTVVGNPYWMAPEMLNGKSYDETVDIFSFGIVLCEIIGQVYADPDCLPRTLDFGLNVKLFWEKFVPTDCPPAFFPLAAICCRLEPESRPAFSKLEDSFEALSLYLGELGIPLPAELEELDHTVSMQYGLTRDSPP
UniProt Q8IWU2: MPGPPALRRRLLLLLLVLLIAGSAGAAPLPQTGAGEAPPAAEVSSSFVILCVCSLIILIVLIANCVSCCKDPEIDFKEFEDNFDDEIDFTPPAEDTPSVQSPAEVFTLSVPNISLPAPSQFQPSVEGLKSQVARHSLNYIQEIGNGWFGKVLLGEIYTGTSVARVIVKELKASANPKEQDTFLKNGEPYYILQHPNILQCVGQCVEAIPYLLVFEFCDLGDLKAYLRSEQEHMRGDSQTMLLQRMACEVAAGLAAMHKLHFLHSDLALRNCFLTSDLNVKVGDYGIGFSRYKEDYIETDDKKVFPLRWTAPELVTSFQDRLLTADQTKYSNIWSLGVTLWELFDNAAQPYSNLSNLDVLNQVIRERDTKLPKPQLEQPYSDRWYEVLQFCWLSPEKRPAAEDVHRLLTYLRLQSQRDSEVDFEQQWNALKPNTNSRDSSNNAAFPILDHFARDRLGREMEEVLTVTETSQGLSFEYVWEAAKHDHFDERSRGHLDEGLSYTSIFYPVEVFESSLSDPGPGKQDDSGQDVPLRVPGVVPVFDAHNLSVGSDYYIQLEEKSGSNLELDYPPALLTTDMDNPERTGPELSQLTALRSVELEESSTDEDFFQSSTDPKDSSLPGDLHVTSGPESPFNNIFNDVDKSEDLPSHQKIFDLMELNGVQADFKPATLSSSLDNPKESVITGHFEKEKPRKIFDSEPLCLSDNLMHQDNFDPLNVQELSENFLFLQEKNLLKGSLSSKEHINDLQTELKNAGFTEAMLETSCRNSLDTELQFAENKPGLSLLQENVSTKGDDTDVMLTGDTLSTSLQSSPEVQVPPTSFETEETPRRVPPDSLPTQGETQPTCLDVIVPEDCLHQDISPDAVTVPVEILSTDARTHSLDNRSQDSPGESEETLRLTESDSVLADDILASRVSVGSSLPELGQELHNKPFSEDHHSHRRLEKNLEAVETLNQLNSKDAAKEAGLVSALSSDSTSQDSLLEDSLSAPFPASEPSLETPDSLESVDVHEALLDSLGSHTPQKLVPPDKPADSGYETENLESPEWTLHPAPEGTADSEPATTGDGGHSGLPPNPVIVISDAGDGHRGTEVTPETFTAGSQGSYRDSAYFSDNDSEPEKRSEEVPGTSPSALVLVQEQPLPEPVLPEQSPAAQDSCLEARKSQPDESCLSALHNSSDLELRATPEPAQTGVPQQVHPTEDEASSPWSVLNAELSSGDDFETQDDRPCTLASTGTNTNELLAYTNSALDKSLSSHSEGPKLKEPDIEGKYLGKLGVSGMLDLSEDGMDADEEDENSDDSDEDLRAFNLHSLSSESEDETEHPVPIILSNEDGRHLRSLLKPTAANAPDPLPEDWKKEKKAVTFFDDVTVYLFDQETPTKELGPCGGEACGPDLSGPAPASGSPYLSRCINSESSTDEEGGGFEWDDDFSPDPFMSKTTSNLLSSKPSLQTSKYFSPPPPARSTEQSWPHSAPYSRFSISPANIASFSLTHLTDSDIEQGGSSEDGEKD
UniProt P07948: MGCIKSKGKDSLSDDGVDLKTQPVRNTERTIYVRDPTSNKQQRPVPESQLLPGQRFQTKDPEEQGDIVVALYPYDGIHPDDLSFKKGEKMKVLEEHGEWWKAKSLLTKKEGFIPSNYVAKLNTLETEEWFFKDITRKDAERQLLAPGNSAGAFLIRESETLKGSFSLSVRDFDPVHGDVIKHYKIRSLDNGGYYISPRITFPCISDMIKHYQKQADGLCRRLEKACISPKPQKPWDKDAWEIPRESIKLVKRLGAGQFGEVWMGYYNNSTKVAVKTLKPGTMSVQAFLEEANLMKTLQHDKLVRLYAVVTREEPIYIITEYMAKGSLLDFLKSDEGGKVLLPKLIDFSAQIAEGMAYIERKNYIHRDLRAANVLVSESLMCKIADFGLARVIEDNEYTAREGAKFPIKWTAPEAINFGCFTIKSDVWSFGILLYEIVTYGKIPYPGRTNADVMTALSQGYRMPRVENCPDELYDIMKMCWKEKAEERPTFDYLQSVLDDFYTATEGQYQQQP
UniProt Q12851: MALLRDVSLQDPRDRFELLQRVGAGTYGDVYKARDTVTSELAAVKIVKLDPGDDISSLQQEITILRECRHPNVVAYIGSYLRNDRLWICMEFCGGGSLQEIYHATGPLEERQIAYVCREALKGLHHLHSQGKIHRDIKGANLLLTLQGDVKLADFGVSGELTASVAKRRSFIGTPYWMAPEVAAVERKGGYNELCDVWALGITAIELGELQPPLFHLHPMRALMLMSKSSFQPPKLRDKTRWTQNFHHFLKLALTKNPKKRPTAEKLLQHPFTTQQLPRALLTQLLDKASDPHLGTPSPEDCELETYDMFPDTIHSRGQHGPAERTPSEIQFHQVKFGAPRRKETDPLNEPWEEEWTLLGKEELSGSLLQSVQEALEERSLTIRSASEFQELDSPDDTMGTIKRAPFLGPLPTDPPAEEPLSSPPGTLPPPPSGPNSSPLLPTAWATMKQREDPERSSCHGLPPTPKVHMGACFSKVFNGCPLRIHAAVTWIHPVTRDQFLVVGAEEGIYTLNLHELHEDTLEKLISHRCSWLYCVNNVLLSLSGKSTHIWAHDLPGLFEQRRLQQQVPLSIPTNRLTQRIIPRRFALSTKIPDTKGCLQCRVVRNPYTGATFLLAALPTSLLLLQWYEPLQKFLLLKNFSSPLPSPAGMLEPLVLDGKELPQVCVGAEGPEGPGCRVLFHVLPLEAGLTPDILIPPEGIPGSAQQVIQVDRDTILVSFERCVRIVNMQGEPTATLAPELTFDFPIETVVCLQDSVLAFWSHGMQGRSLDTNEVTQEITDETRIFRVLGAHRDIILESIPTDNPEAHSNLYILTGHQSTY
UniProt P06239: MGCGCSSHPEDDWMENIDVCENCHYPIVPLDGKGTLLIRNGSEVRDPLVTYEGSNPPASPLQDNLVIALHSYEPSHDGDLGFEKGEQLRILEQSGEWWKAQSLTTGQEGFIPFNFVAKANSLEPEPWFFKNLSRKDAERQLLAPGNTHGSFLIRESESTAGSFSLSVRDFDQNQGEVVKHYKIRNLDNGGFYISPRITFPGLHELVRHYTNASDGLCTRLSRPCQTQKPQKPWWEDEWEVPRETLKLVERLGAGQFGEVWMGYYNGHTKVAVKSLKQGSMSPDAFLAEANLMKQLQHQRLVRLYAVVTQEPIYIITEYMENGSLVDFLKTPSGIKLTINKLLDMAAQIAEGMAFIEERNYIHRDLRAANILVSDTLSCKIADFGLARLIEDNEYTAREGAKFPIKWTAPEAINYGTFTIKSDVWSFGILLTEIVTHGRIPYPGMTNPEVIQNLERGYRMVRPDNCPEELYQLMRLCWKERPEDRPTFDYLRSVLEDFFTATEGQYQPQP

How the values were obtained:
Test in all cases: kinase-Nluc reporter destabilization hit call (1 = scored as downregulated) (binary); higher = compound decreases kinase abundance
Settings in all cases: K562; 2-18 h
ERN1 = ERN1 (UniProt O75460)
FGFR1 = FGFR1 (UniProt P11362)
FGFR2 = FGFR2 (UniProt P21802)
FGFR3 = FGFR3 (UniProt P22607)
FGR = FGR (UniProt P09769)
FLT3 = FLT3 (UniProt P36888)
FYN = FYN (UniProt P06241)
GSK3A = GSK3A (UniProt P49840)
HER2 = HER2 (UniProt P04626)
INSRR = INSRR (UniProt P14616)
IRAK3 = IRAK3 (UniProt Q9Y616)
JAK1 = JAK1 (UniProt P23458)
LIMK1 = LIMK1 (UniProt P53667)
LIMK2 = LIMK2 (UniProt P53671)
LMTK2 = LMTK2 (UniProt Q8IWU2)
LYN = LYN (UniProt P07948)
MAP2K1 = MAP2K1 (UniProt Q02750)
MAP2K2 = MAP2K2 (UniProt P36507)
MAP4K2 = MAP4K2 (UniProt Q12851)
LCK = LCK (UniProt P06239)

Measured: kinase-Nluc reporter destabilization hit call

CC(C)CC(=O)Nc1n[nH]c2c1CN(C(=O)C1CCN(C)CC1)C2(C)C (2.5 µM)
inactive: ERN1 = 0 | FGFR1 = 0 | FGFR2 = 0 | FGFR3 = 0 | FGR 0 | FLT3 = 0 | FYN 0 | GSK3A 0 | HER2 = 0 | INSRR 0 | IRAK3 = 0 | JAK1 = 0 | LIMK1 = 0 | LIMK2 = 0 | LMTK2 = 0 | LYN 0 | MAP2K1 = 0 | MAP2K2 = 0 | MAP4K2 = 0

Cc1c[nH]c2nccc(Oc3c(F)cc(Nc4cc(Cl)nc(N)n4)cc3F)c12 (10 µM)
inactive: ERN1 = 0 | FGFR1 = 0 | FGFR2 = 0 | FGFR3 = 0 | FGR 0 | FLT3 = 0 | FYN 0 | GSK3A 0 | HER2 = 0 | INSRR 0 | IRAK3 = 0 | JAK1 = 0 | LCK 0 | LIMK1 = 0 | LIMK2 = 0 | LMTK2 = 0 | LYN 0 | MAP2K1 = 0 | MAP2K2 = 0 | MAP4K2 = 0

CCOc1cc2ncc(C#N)c(Nc3ccc(OCc4ccccn4)c(Cl)c3)c2cc1NC(=O)/C=C/CN(C)C [Neratinib] (10 µM)
inactive: ERN1 = 0 | FGFR1 = 0 | FGFR2 = 0 | FGFR3 = 0 | FGR 0 | FLT3 = 0 | FYN 0 | GSK3A 0 | INSRR 0 | IRAK3 = 0 | JAK1 = 0 | LCK 0 | LIMK1 = 0 | LIMK2 = 0 | LMTK2 = 0 | LYN 0 | MAP2K1 = 0 | MAP2K2 = 0 | MAP4K2 = 0
active: HER2 = 1

Cc1cccc([C@@H](CO)NC(=O)[C@@H](C)N2Cc3ccc(-c4nc(NC5CCOCC5)ncc4Cl)cc3C2=O)c1 [ERK1/2 inhibitor 1] (10 µM)
inactive: ERN1 = 0 | FGFR1 = 0 | FGFR2 = 0 | FGFR3 = 0 | FGR 0 | FLT3 = 0 | FYN 0 | GSK3A 0 | HER2 = 0 | INSRR 0 | IRAK3 = 0 | JAK1 = 0 | LCK 0 | LIMK1 = 0 | LIMK2 = 0 | LMTK2 = 0 | LYN 0 | MAP2K1 = 0 | MAP2K2 = 0 | MAP4K2 = 0

An excerpt from above in order of formula weight, smallest number first:
Cc1c[nH]c2nccc(Oc3c(F)cc(Nc4cc(Cl)nc(N)n4)cc3F)c12 (10 µM)
inactive: ERN1 = 0 | FGFR1 = 0 | FGFR2 = 0 | FGFR3 = 0 | FGR 0 | FLT3 = 0 | FYN 0 | GSK3A 0 | HER2 = 0 | INSRR 0 | IRAK3 = 0 | JAK1 = 0 | LCK 0 | LIMK1 = 0 | LIMK2 = 0 | LMTK2 = 0 | LYN 0 | MAP2K1 = 0 | MAP2K2 = 0 | MAP4K2 = 0

Cc1cccc([C@@H](CO)NC(=O)[C@@H](C)N2Cc3ccc(-c4nc(NC5CCOCC5)ncc4Cl)cc3C2=O)c1 [ERK1/2 inhibitor 1] (10 µM)
inactive: ERN1 = 0 | FGFR1 = 0 | FGFR2 = 0 | FGFR3 = 0 | FGR 0 | FLT3 = 0 | FYN 0 | GSK3A 0 | HER2 = 0 | INSRR 0 | IRAK3 = 0 | JAK1 = 0 | LCK 0 | LIMK1 = 0 | LIMK2 = 0 | LMTK2 = 0 | LYN 0 | MAP2K1 = 0 | MAP2K2 = 0 | MAP4K2 = 0

CCOc1cc2ncc(C#N)c(Nc3ccc(OCc4ccccn4)c(Cl)c3)c2cc1NC(=O)/C=C/CN(C)C [Neratinib] (10 µM)
inactive: ERN1 = 0 | FGFR1 = 0 | FGFR2 = 0 | FGFR3 = 0 | FGR 0 | FLT3 = 0 | FYN 0 | GSK3A 0 | INSRR 0 | IRAK3 = 0 | JAK1 = 0 | LCK 0 | LIMK1 = 0 | LIMK2 = 0 | LMTK2 = 0 | LYN 0 | MAP2K1 = 0 | MAP2K2 = 0 | MAP4K2 = 0
active: HER2 = 1

Next structures follow:

C[C@H](NC(=O)/C(C#N)=C/c1cccc(Br)n1)c1ccccc1 (2.5 µM)
inactive: ERN1 = 0 | FGFR1 = 0 | FGFR2 = 0 | FGFR3 = 0 | FGR 0 | FLT3 = 0 | FYN 0 | GSK3A 0 | HER2 = 0 | INSRR 0 | IRAK3 = 0 | JAK1 = 0 | LCK 0 | LIMK1 = 0 | LIMK2 = 0 | LMTK2 = 0 | LYN 0 | MAP2K1 = 0 | MAP2K2 = 0 | MAP4K2 = 0

N#Cc1ccc2[nH]c(O)c(-c3ccc(CN4CCOCC4)cn3)c2c1 (10 µM)
inactive: ERN1 = 0 | FGFR1 = 0 | FGFR2 = 0 | FGFR3 = 0 | FGR 0 | FLT3 = 0 | FYN 0 | GSK3A 0 | HER2 = 0 | INSRR 0 | IRAK3 = 0 | JAK1 = 0 | LCK 0 | LIMK1 = 0 | LIMK2 = 0 | LMTK2 = 0 | LYN 0 | MAP2K1 = 0 | MAP2K2 = 0 | MAP4K2 = 0

CN1CCN(c2ccc(C(=O)Nc3n[nH]c4ccc(Cc5cc(F)cc(F)c5)cc34)c(NC3CCOCC3)c2)CC1 [Entrectinib] (2.5 µM)
inactive: ERN1 = 0 | FGFR1 = 0 | FGFR2 = 0 | FGFR3 = 0 | FGR 0 | FLT3 = 0 | FYN 0 | GSK3A 0 | HER2 = 0 | INSRR 0 | IRAK3 = 0 | JAK1 = 0 | LIMK1 = 0 | LIMK2 = 0 | LMTK2 = 0 | LYN 0 | MAP2K1 = 0 | MAP2K2 = 0 | MAP4K2 = 0

O=C(NOC[C@H](O)CO)c1ccc(F)c(F)c1Nc1ccc(I)cc1F (2.5 µM)
inactive: ERN1 = 0 | FGFR1 = 0 | FGFR2 = 0 | FGFR3 = 0 | FGR 0 | FLT3 = 0 | FYN 0 | GSK3A 0 | HER2 = 0 | INSRR 0 | IRAK3 = 0 | JAK1 = 0 | LCK 0 | LIMK1 = 0 | LIMK2 = 0 | LMTK2 = 0 | LYN 0 | MAP2K2 = 0 | MAP4K2 = 0

CC(C)(C)c1nc2c3cc[nH]c(=O)c3c3cc(F)ccc3c2[nH]1 [Pyridone 6] (10 µM)
inactive: ERN1 = 0 | FGFR1 = 0 | FGFR2 = 0 | FGFR3 = 0 | FGR 0 | FLT3 = 0 | FYN 0 | GSK3A 0 | HER2 = 0 | INSRR 0 | IRAK3 = 0 | JAK1 = 0 | LIMK1 = 0 | LIMK2 = 0 | LMTK2 = 0 | LYN 0 | MAP2K1 = 0 | MAP2K2 = 0 | MAP4K2 = 0

CC(=O)NCC(=O)N1[C@@H]2CC[C@H]1c1ccc(Nc3ncc(C(F)(F)F)c(NC4CCC4)n3)cc12 (2.5 µM)
inactive: ERN1 = 0 | FGFR1 = 0 | FGFR2 = 0 | FGFR3 = 0 | FGR 0 | FLT3 = 0 | FYN 0 | GSK3A 0 | HER2 = 0 | INSRR 0 | IRAK3 = 0 | JAK1 = 0 | LCK 0 | LIMK1 = 0 | LIMK2 = 0 | LMTK2 = 0 | LYN 0 | MAP2K1 = 0 | MAP2K2 = 0 | MAP4K2 = 0

Cc1cc(C(=O)Nc2cccc(C(=O)Nc3cccc(C(F)(F)F)c3)c2)on1 (10 µM)
inactive: ERN1 = 0 | FGFR1 = 0 | FGFR2 = 0 | FGFR3 = 0 | FGR 0 | FLT3 = 0 | FYN 0 | GSK3A 0 | HER2 = 0 | INSRR 0 | IRAK3 = 0 | JAK1 = 0 | LCK 0 | LMTK2 = 0 | LYN 0 | MAP2K1 = 0 | MAP2K2 = 0 | MAP4K2 = 0

CCC(=O)N1CCN(c2ccc(-n3c(=O)ccc4cnc5ccc(-c6cnc7ccccc7c6)cc5c43)cc2C(F)(F)F)CC1 [Torin 1] (2 µM)
inactive: ERN1 = 0 | FGFR1 = 0 | FGFR3 = 0 | FGR 0 | FLT3 = 0 | FYN 0 | GSK3A 0 | HER2 = 0 | INSRR 0 | IRAK3 = 0 | JAK1 = 0 | LCK 0 | LIMK1 = 0 | LIMK2 = 0 | LMTK2 = 0 | LYN 0 | MAP2K1 = 0 | MAP2K2 = 0 | MAP4K2 = 0
active: FGFR2 = 1

Oc1cc(O)cc(/C=C/c2ccc(O)c(O)c2)c1 [Piceatannol] (10 µM)
inactive: ERN1 = 0 | FGFR1 = 0 | FGFR2 = 0 | FGFR3 = 0 | FGR 0 | FLT3 = 0 | FYN 0 | GSK3A 0 | HER2 = 0 | INSRR 0 | IRAK3 = 0 | JAK1 = 0 | LIMK1 = 0 | LIMK2 = 0 | LMTK2 = 0 | LYN 0 | MAP2K1 = 0 | MAP2K2 = 0 | MAP4K2 = 0

Cc1c[nH]c2ccccc12 [Skatole] (10 µM)
inactive: ERN1 = 0 | FGFR1 = 0 | FGFR2 = 0 | FGFR3 = 0 | FGR 0 | FLT3 = 0 | FYN 0 | GSK3A 0 | HER2 = 0 | INSRR 0 | IRAK3 = 0 | JAK1 = 0 | LCK 0 | LIMK1 = 0 | LIMK2 = 0 | LMTK2 = 0 | LYN 0 | MAP2K1 = 0 | MAP2K2 = 0 | MAP4K2 = 0

C/C=C(/C)C(=O)O[C@H]1Cc2cc3ccc(=O)oc3cc2OC1(C)C [Decursinol angelate] (10 µM)
inactive: ERN1 = 0 | FGFR1 = 0 | FGFR2 = 0 | FGFR3 = 0 | FGR 0 | FLT3 = 0 | FYN 0 | GSK3A 0 | HER2 = 0 | INSRR 0 | IRAK3 = 0 | JAK1 = 0 | LCK 0 | LIMK1 = 0 | LIMK2 = 0 | LMTK2 = 0 | LYN 0 | MAP2K1 = 0 | MAP2K2 = 0 | MAP4K2 = 0

CCN1CCN(c2ccc(Nc3cc(N(C)C(=O)Nc4c(Cl)c(OC)cc(OC)c4Cl)ncn3)cc2)CC1 [Infigratinib] (10 µM)
inactive: ERN1 = 0 | FGFR1 = 0 | FGFR2 = 0 | FGFR3 = 0 | FGR 0 | FLT3 = 0 | FYN 0 | GSK3A 0 | HER2 = 0 | INSRR 0 | IRAK3 = 0 | JAK1 = 0 | LCK 0 | LIMK1 = 0 | LIMK2 = 0 | LMTK2 = 0 | LYN 0 | MAP2K1 = 0 | MAP2K2 = 0 | MAP4K2 = 0

CC(C)C(=O)Nc1ncc(-c2cc(C(F)F)nn2-c2c(Cl)cccc2Cl)s1 (10 µM)
active: HER2 = 1
inactive: ERN1 = 0 | FGFR1 = 0 | FGFR2 = 0 | FGFR3 = 0 | FGR 0 | FLT3 = 0 | FYN 0 | GSK3A 0 | INSRR 0 | IRAK3 = 0 | JAK1 = 0 | LCK 0 | LMTK2 = 0 | LYN 0 | MAP2K1 = 0 | MAP2K2 = 0 | MAP4K2 = 0

CCCn1cnc2c(NCc3ccccc3)nc(NC(CC)CO)nc21 (stereo unspecified) [Ca2+ channel agonist 1] (2.5 µM)
inactive: ERN1 = 0 | FGFR1 = 0 | FGFR2 = 0 | FGFR3 = 0 | FGR 0 | FLT3 = 0 | FYN 0 | GSK3A 0 | HER2 = 0 | INSRR 0 | IRAK3 = 0 | JAK1 = 0 | LCK 0 | LIMK1 = 0 | LIMK2 = 0 | LMTK2 = 0 | LYN 0 | MAP2K1 = 0 | MAP2K2 = 0 | MAP4K2 = 0

CC(C)Oc1cc(Nc2nc(N[C@@H](C)c3ccc(F)cn3)ncc2Cl)n[nH]1 (10 µM)
inactive: ERN1 = 0 | FGFR1 = 0 | FGFR2 = 0 | FGFR3 = 0 | FGR 0 | FLT3 = 0 | FYN 0 | GSK3A 0 | HER2 = 0 | INSRR 0 | IRAK3 = 0 | JAK1 = 0 | LCK 0 | LIMK1 = 0 | LIMK2 = 0 | LMTK2 = 0 | LYN 0 | MAP2K1 = 0 | MAP2K2 = 0 | MAP4K2 = 0
